PubChem BioAssay AID1224830, NIAID – 2016
In all, the deposit lists about 18,000 reagents; shown is an unselected part. Of all reagents, about 2,900 (16%) got an active call. 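Calls are made per well; low scores hint the gene aids the LPS response, high scores that it dampens it.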 Repeated entries: four replicate wells of each siRNA pool. No sequences are given here.

- Screen: 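Genes whose knock-down alters the TNF-alpha reporter response to LPS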 (primary screen)
- Cells: human THP-1 monocytic leukaemia cells, TNF dual-luciferase reporter clone, PMA-differentiated to macrophage-like cells
- Reagent: siRNA pool against human genes, 50 nM
- Timing: LPS for 4 h, given about 3 days after siRNA transfection
- Treatment: bacterial LPS (TLR4 ligand), 10 ng/ml
- Measured: 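TNF firefly reporter luminescence divided by renilla, normalised to the plate median, then turned into a robust z-score for each replicate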
- Direction: TNF reporter robust z-score: higher = stronger TNF reporter response to LPS
- Rule for the call: 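a well is active when its z-score exceeds 2.8 or falls below -1.5; control wells carry no call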

| Target gene | TNF reporter robust z-score | call |
| --- | --- | --- |
| EFR3A | 0.2 | inactive |
| EFR3A | -0.47 | inactive |
| EFR3A | -0.81 | inactive |
| EFR3A | -0.57 | inactive |
| MORF4L1 | -0.86 | inactive |
| MORF4L1 | -1.21 | inactive |
| MORF4L1 | -0.57 | inactive |
| MORF4L1 | -0.23 | inactive |
| VPS35 | 0.33 | inactive |
| VPS35 | -1.18 | inactive |
| VPS35 | -0.89 | inactive |
| VPS35 | -0.24 | inactive |
| RAB4A | -1.06 | inactive |
| RAB4A | -0.36 | inactive |
| RAB4A | -0.66 | inactive |
| RAB4A | -0.57 | inactive |
| TMEM213 | 0.02 | inactive |
| TMEM213 | -0.8 | inactive |
| TMEM213 | -0.63 | inactive |
| TMEM213 | -0.97 | inactive |
| GPRASP1 | 1.22 | inactive |
| GPRASP1 | 1.13 | inactive |
| GPRASP1 | -0.58 | inactive |
| GPRASP1 | -0.94 | inactive |
| STK40 | 2.67 | inactive |
| STK40 | 1.52 | inactive |
| STK40 | 1.15 | inactive |
| STK40 | -0.68 | inactive |
| ARSB | -0.55 | inactive |
| ARSB | -0.68 | inactive |
| ARSB | -0.23 | inactive |
| ARSB | -0.31 | inactive |
| FMO5 | -2.2 | active |
| FMO5 | -1.31 | inactive |
| FMO5 | -1.35 | inactive |
| FMO5 | -0.28 | inactive |
| PCDHGC4 | -0.19 | inactive |
| PCDHGC4 | 1.26 | inactive |
| PCDHGC4 | 0.74 | inactive |
| PCDHGC4 | 1.54 | inactive |
| ACAT2 | 0.89 | inactive |
| ACAT2 | 1.04 | inactive |
| ACAT2 | 1.17 | inactive |
| ACAT2 | 1.24 | inactive |
| COPZ1 | -0.05 | inactive |
| COPZ1 | 0.15 | inactive |
| COPZ1 | -0.63 | inactive |
| COPZ1 | 0.65 | inactive |

Part of the list above, set out differently.
{"Target gene":"TMEM213","TNF reporter robust z-score":0.02,"call":"inactive"}
{"Target gene":"TMEM213","TNF reporter robust z-score":-0.8,"call":"inactive"}
